The structures appear in SMILES notation.

The results in this text go back to ChEMBL document CHEMBL1140732, “2-(3-aryl-3-oxopropen-1-yl)-9-tert-butyl-paullones: a new antileishmanial chemotype” (J Med Chem, 2008).

The test system of one data set is THP-1. Description: Toxicity against human THP1 cells at 5 uM by alamar blue viability assay. Conditions: thp-1, 5 µM. On the technique in general: The colour change of resazurin is a common sign of viable cells or microbes.
In data set [1] the test system is Leishmania donovani. Briefly: microbe, parasite or virus in culture. Conditions: 1S-C12d, THP-1. The data set is classed as functional.
Data set [2] concerns Leishmania donovani. Description: microbe, parasite or virus in culture. The settings on record: 1S-C12d. The data set is classed as functional.
Data set [3] relates to Leishmania donovani. Briefly: microbe, parasite or virus in culture. Conditions: 1S-C12d.
Data set [4] concerns Leishmania donovani. Briefly: microbe, parasite or virus in culture. The settings on record: 1S-C12d. It counts as functional. The source holds these as a separate data set.

The inhibition is the percentage by which the read-out fell short of the control. Lower therefore signals little suppression. What is called GI50 is the concentration that inhibits growth by half. In the case of `Cc1ccc2[nH]c3c(c2c1)CC(=O)Nc1ccccc1-3`, the Activity in the data set with THP-1 turned out to be 0%. Moreover, testing at 5 µM with Leishmania donovani [1] gave an inhibition of 0%. Besides, it took 15.7 µM to inhibit growth in the data set on Leishmania donovani [2] by half (GI50). This compound came in with an inhibition at 50 µM in the data set with Leishmania donovani [3] of 91.2%. In the data set on Leishmania donovani [4], the inhibition at 15 µM amounted to 25.5%.
